Experimental data: US20170342148A1 (UNIVERSITE DE NANTES, published 2017)
Results are given in words; binding and its absence hold for the method and conditions named. Some entries that bind do so weakly or less than the wild type. Sequences can lack the tags named with a protein.

Chains of the proteins cited; added tags and fusions are not shown. Residues count along the entry.
UniProt P07333, residues 20-512: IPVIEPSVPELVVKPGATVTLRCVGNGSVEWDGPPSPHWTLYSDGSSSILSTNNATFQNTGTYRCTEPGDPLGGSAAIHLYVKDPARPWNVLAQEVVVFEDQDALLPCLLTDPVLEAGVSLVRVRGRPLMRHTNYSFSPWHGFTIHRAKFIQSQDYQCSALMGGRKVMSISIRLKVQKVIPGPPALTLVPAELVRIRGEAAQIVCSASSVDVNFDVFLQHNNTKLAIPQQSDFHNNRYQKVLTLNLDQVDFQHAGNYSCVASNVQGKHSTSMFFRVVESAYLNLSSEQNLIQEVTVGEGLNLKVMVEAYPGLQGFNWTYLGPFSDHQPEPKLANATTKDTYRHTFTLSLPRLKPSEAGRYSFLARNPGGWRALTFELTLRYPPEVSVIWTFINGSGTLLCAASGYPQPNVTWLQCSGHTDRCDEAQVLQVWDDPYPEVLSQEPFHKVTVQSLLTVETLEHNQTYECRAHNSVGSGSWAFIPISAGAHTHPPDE

Legend:
[1] = target: M-CSF receptor (R&D-Systems ref: 329-MR) (UniProt P07333); assay: SPR, earlier assays with receptor captured at a lower level (about 100-200 RU)
[2] = target: M-CSF receptor (R&D-Systems ref: 329-MR) (UniProt P07333); assay: SPR (BIAcore T100), immobilised M-CSF-R
[3] = target: M-CSF receptor (R&D-Systems ref: 329-MR) (UniProt P07333); assay: SPR (BIAcore T100, 25 C). M-CSF-R was covalently immobilised on a CM5 chip and 50 nM IL-34 was injected.

binding [1]: binds
binding [2]: binds
binding [3]: binds
B1: recombinant protein IL-34 (Peprotech Ref 200-34, whole protein without signal peptide with His tag on C-terminal) (ligand, UniProt Q6ZMJ4 21-242, looked up, not shown: small tags and cut ends)
chain: NEPLEMWPLTQNEECTVTGFLRDKLQYRSRLQYMKHYFPINYKISVPYEGVFRIANVTRLQRAQVSERELRYLWVLVSLSATESVQDVLLEGHPSWKYLQEVETLLLNVQQGLTDVEVSPKVESVLSLLNAPGPNLKLVRPKALLDNCFRVMELLYCSCCKQSSVLNWQDCEVPSPQSCSPEPSLQYAATQLYPPPPWSPSSPPHSTGSVRPVRAQGEGLLP
